Measured values reported in the supplement of paper PMC4604168 (melanoma cell lines).
This is one part of the list. Repeats are few or missing, and single values can be far off.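 The apoptosis fraction was the count of cleaved-PARP antibody-stained nuclei relative to all DNA-stained nuclei, imaged in 1,536-well plates. Screening doses were set so most cells survived, and baseline and induced cleaved-PARP levels vary greatly across cell lines.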

Legend:
Test in all cases: cleaved PARP positive nuclei fraction relative to DMSO control; melanoma cells; higher = more apoptosis
Settings in all cases: library dose: low library concentration; 72 h
[1] = test system: WM115
[2] = test system: WM1716
[3] = test system: WM1745
[4] = test system: WM3526
[5] = test system: WM3619
[6] = test system: WM451Lu

Compound | cleaved PARP positive nuclei fraction [1] | cleaved PARP positive nuclei fraction [2] | cleaved PARP positive nuclei fraction [3] | cleaved PARP positive nuclei fraction [4] | cleaved PARP positive nuclei fraction [5] | cleaved PARP positive nuclei fraction [6]
CS(=O)(=O)c1ccc(C(=O)Nc2ccc(Cl)c(-c3ccccn3)c2)c(Cl)c1 [vismodegib] + Cc1cc(N2CCOCC2)cc2[nH]c(-c3c(NC[C@@H](O)c4cccc(Cl)c4)cc[nH]c3=O)nc12 [BMS536924] (first compound 1 µM, partner dose 0.2 µM) | 133% | 173% | 121% | 59.4% | 91.1% | 116%
C[C@]1(O)C[C@@H](c2nc(-c3ccc4ccc(-c5ccccc5)nc4c3)c3c(N)nccn32)C1 + CCN(CC)CCCCNc1ncc2cc(-c3cc(OC)cc(OC)c3)c(NC(=O)NC(C)(C)C)nc2n1 [PD173074] (first compound 0.4 µM, partner dose 0.1 µM) | 121% | 182% | 114% | 141% | 89.5% | 137%
CCN(CC)CCNC(=O)c1c(C)[nH]c(/C=C2\C(=O)Nc3ccc(F)cc32)c1C [sunitinib] + CN(C)S(=O)(=O)c1ccc2c(c1)/C(=C/c1cc3c([nH]1)CCCC3)C(=O)N2 [SU6656] (first compound 0.4 µM, partner dose 0.4 µM) | 145% | 39.4% | 110% | 58.4% | 83.8% | 65.1%
NC1(c2ccc(-c3nc4ccn5c(=O)[nH]nc5c4cc3-c3ccccc3)cc2)CCC1 + Nc1cccc2c1CN(C1CCC(=O)NC1=O)C2=O [lenalidomide] (first compound 0.4 µM, partner dose 1 µM) | 140% | 89.2% | 103% | 88.6% | 99.5% | 52%
Cn1sc(=O)n(Cc2ccccc2)c1=O + COc1ccc2c(c1)CCC1C2CCC2(C)C(NCCCCCCN3C(=O)C=CC3=O)CCC12 [U73122] (first compound 0.4 µM, partner dose 0.4 µM) | 118% | 102% | 97.6% | 208% | 108% | 300%
CC(=O)O[C@@]12CO[C@@H]1C[C@H](O)[C@@]1(C)C(=O)[C@H](O)C3=C(C)[C@@H](OC(=O)[C@H](O)[C@@H](NC(=O)OC(C)(C)C)c4ccccc4)C[C@@](O)([C@@H](OC(=O)c4ccccc4)[C@H]21)C3(C)C [Docetaxel] + CC(C)(C)c1cnc(CSc2cnc(NC(=O)C3CCNCC3)s2)o1 [SNS-032] (first compound 0.0001 µM, partner dose 0.01 µM) | 416% | 615% | 165% | 148% | 119% | 720%
CC1(C)CCC(c2ccc(Cl)cc2)=C(CN2CCN(c3ccc(C(=O)NS(=O)(=O)c4ccc(N[C@H](CCN5CCOCC5)CSc5ccccc5)c(S(=O)(=O)C(F)(F)F)c4)cc3)CC2)C1 + C=C(c1ccc(C(=O)O)cc1)c1cc2c(cc1C)C(C)(C)CCC2(C)C [Bexarotene] (first compound 0.4 µM, partner dose 2 µM) | 240% | 111% | 459% | 273% | 148% | 59.1%
CCN(CC)CCNC(=O)c1c(C)[nH]c(/C=C2\C(=O)Nc3ccc(F)cc32)c1C [sunitinib] + NC1(c2ccc(-c3nc4ccn5c(=O)[nH]nc5c4cc3-c3ccccc3)cc2)CCC1 [MK2206] (first compound 0.4 µM, partner dose 0.4 µM) | 168% | 111% | 136% | 190% | 147% | 82.6%
C[C@]1(O)C[C@@H](c2nc(-c3ccc4ccc(-c5ccccc5)nc4c3)c3c(N)nccn32)C1 + Cc1cc(Nc2cc(N3CCN(C)CC3)nc(/C=C/c3ccccc3)n2)n[nH]1 [ENMD2076] (first compound 0.4 µM, partner dose 0.04 µM) | 133% | 198% | 118% | 45.3% | 92.6% | 142%
NC1(c2ccc(-c3nc4ccn5c(=O)[nH]nc5c4cc3-c3ccccc3)cc2)CCC1 + Cn1cc(/C=C2\C(=O)Nc3cccnc32)c2ccccc21 [GW441756] (first compound 0.4 µM, partner dose 0.4 µM) | 364% | 110% | 97.1% | 219% | 108% | 40.1%
C[C@]1(O)C[C@@H](c2nc(-c3ccc4ccc(-c5ccccc5)nc4c3)c3c(N)nccn32)C1 + CN(NC(=O)CC(=O)NN(C)C(=S)c1ccccc1)C(=S)c1ccccc1 [STA4783] (first compound 0.4 µM, partner dose 0.006 µM) | 173% | 197% | 1780% | 65.9% | 312% | 93.1%
CC(=O)O[C@@]12CO[C@@H]1C[C@H](O)[C@@]1(C)C(=O)[C@H](O)C3=C(C)[C@@H](OC(=O)[C@H](O)[C@@H](NC(=O)OC(C)(C)C)c4ccccc4)C[C@@](O)([C@@H](OC(=O)c4ccccc4)[C@H]21)C3(C)C [Docetaxel] + Nc1cccc2c1CN(C1CCC(=O)NC1=O)C2=O [lenalidomide] (first compound 0.0001 µM, partner dose 1 µM) | 195% | 63.9% | 175% | 151% | 119% | 105%
NC(=O)c1ccc(N(C(N)=O)c2c(F)cccc2F)nc1-c1ccc(F)cc1F + OCCn1cc(-c2cnc3nnn(Cc4ccc5ncccc5c4)c3n2)cn1 [PF04217903] (first compound 0.4 µM, partner dose 1 µM) | 65.4% | 96.1% | 86.5% | 68% | 103% | 458%
C[C@]1(O)C[C@@H](c2nc(-c3ccc4ccc(-c5ccccc5)nc4c3)c3c(N)nccn32)C1 + Nc1cccc2c1CN(C1CCC(=O)NC1=O)C2=O [lenalidomide] (first compound 0.4 µM, partner dose 1 µM) | 25.4% | 172% | 117% | 87.2% | 103% | 85%
COc1ccc(C2=N[C@@H](c3ccc(Cl)cc3)[C@@H](c3ccc(Cl)cc3)N2C(=O)N2CCNC(=O)C2)c(OC(C)C)c1 [Nutlin-3] + COc1cc2c(Oc3ccc4[nH]c(C)cc4c3F)ncnc2cc1OCCCN1CCCC1 [cediranib] (first compound 0.1 µM, partner dose 0.4 µM) | 66.2% | 58.5% | 99.5% | 61.2% | 97% | 83.7%
Cn1sc(=O)n(Cc2ccccc2)c1=O + CC(C)(C)c1cnc(CSc2cnc(NC(=O)C3CCNCC3)s2)o1 [SNS-032] (first compound 0.4 µM, partner dose 0.01 µM) | 163% | 124% | 88.2% | 74.2% | 91.3% | 113%
COc1ccc(C2=N[C@@H](c3ccc(Cl)cc3)[C@@H](c3ccc(Cl)cc3)N2C(=O)N2CCNC(=O)C2)c(OC(C)C)c1 [Nutlin-3] + O=c1cc(-c2cccc3c2Sc2ccccc2S3)oc(N2CCOCC2)c1 [KU55933] (first compound 0.1 µM, partner dose 1 µM) | 81.2% | 54.8% | 104% | 244% | 111% | 20.9%
CCN(CC)CCNC(=O)c1c(C)[nH]c(/C=C2\C(=O)Nc3ccc(F)cc32)c1C [sunitinib] + OCCn1cc(-c2cnc3nnn(Cc4ccc5ncccc5c4)c3n2)cn1 [PF04217903] (first compound 0.4 µM, partner dose 1 µM) | 38% | 42.1% | 96.3% | 70% | 62.7% | 139%
CC1(C)CCC(c2ccc(Cl)cc2)=C(CN2CCN(c3ccc(C(=O)NS(=O)(=O)c4ccc(N[C@H](CCN5CCOCC5)CSc5ccccc5)c(S(=O)(=O)C(F)(F)F)c4)cc3)CC2)C1 + CN(NC(=O)CC(=O)NN(C)C(=S)c1ccccc1)C(=S)c1ccccc1 [STA4783] (first compound 0.4 µM, partner dose 0.006 µM) | 676% | 411% | 1080% | 55.4% | 147% | 89%
CN(c1ncccc1CNc1nc(Nc2ccc3c(c2)CC(=O)N3)ncc1C(F)(F)F)S(C)(=O)=O + Cn1cncc1[C@@](N)(c1ccc(Cl)cc1)c1ccc2c(c1)c(-c1cccc(Cl)c1)cc(=O)n2C [tipifarnib] (first compound 0.08 µM, partner dose 0.01 µM) | 131% | 124% | 104% | 197% | 107% | 118%
NC1(c2ccc(-c3nc4ccn5c(=O)[nH]nc5c4cc3-c3ccccc3)cc2)CCC1 + CCCS(=O)(=O)Nc1ccc(F)c(C(=O)c2c[nH]c3ncc(Cl)cc23)c1F [PLX4720] (first compound 0.4 µM, partner dose 0.08 µM) | 362% | 75.5% | 102% | 134% | 162% | 359%
CCN(CC)CCNC(=O)c1c(C)[nH]c(/C=C2\C(=O)Nc3ccc(F)cc32)c1C [sunitinib] + Cc1nc(Nc2ncc(C(=O)Nc3c(C)cccc3Cl)s2)cc(N2CCN(CCO)CC2)n1 [dasatanib] (first compound 0.4 µM, partner dose 0.004 µM) | 172% | 27.5% | 121% | 140% | 82.6% | 153%
CCN(CC)CCNC(=O)c1c(C)[nH]c(/C=C2\C(=O)Nc3ccc(F)cc32)c1C [sunitinib] + C=C(c1ccc(C(=O)O)cc1)c1cc2c(cc1C)C(C)(C)CCC2(C)C [Bexarotene] (first compound 0.4 µM, partner dose 2 µM) | 111% | 105% | 114% | 50.1% | 65.9% | 370%
C[C@@H](N)c1ccc(C(=O)Nc2ccnc3[nH]ccc23)cc1 + C=C(c1ccc(C(=O)O)cc1)c1cc2c(cc1C)C(C)(C)CCC2(C)C [Bexarotene] (first compound 0.4 µM, partner dose 2 µM) | 130% | 426% | 155% | 44.2% | 91.5% | 315%
C[C@]1(O)C[C@@H](c2nc(-c3ccc4ccc(-c5ccccc5)nc4c3)c3c(N)nccn32)C1 + CO[C@@H]1[C@H](N(C)C(=O)c2ccccc2)C[C@H]2O[C@]1(C)n1c3ccccc3c3c4c(c5c6ccccc6n2c5c31)C(=O)NC4 [Midostaurin] (first compound 0.4 µM, partner dose 0.08 µM) | 109% | 45.8% | 115% | 70.8% | 135% | 43.1%

Copied from above for reference:
Compound | cleaved PARP positive nuclei fraction [1] | cleaved PARP positive nuclei fraction [2] | cleaved PARP positive nuclei fraction [3] | cleaved PARP positive nuclei fraction [4] | cleaved PARP positive nuclei fraction [5] | cleaved PARP positive nuclei fraction [6]
Cn1sc(=O)n(Cc2ccccc2)c1=O + CC(C)(C)c1cnc(CSc2cnc(NC(=O)C3CCNCC3)s2)o1 [SNS-032] (first compound 0.4 µM, partner dose 0.01 µM) | 163% | 124% | 88.2% | 74.2% | 91.3% | 113%
COc1ccc(C2=N[C@@H](c3ccc(Cl)cc3)[C@@H](c3ccc(Cl)cc3)N2C(=O)N2CCNC(=O)C2)c(OC(C)C)c1 [Nutlin-3] + O=c1cc(-c2cccc3c2Sc2ccccc2S3)oc(N2CCOCC2)c1 [KU55933] (first compound 0.1 µM, partner dose 1 µM) | 81.2% | 54.8% | 104% | 244% | 111% | 20.9%
